From PubChem BioAssay AID588590 (National Center for Advancing Translational Sciences (NCATS), 2011)
Screen size: about 390,000 compounds; about 4,000 (1%) were called active. This list was built around the results that the source calls inconclusive (neither active nor inactive); the mix of calls is not that of the screen. The call rests on the fitted dose curve; in most records, active means well fitted inhibition curve with a large enough effect; inconclusive means small, poorly fitted or top-dose-only effect, or another doubt; inactive means no such curve, though single readings can be large or run the other way. Potencies of inconclusive entries are doubtful fits and often do not repeat.

Protein sequences, listed by entry. Tags and fused reporters are not part of them. Lines headed by an entry give the natural chain unless they say otherwise; changes in a name come on top.
UniProt Q9UNA4: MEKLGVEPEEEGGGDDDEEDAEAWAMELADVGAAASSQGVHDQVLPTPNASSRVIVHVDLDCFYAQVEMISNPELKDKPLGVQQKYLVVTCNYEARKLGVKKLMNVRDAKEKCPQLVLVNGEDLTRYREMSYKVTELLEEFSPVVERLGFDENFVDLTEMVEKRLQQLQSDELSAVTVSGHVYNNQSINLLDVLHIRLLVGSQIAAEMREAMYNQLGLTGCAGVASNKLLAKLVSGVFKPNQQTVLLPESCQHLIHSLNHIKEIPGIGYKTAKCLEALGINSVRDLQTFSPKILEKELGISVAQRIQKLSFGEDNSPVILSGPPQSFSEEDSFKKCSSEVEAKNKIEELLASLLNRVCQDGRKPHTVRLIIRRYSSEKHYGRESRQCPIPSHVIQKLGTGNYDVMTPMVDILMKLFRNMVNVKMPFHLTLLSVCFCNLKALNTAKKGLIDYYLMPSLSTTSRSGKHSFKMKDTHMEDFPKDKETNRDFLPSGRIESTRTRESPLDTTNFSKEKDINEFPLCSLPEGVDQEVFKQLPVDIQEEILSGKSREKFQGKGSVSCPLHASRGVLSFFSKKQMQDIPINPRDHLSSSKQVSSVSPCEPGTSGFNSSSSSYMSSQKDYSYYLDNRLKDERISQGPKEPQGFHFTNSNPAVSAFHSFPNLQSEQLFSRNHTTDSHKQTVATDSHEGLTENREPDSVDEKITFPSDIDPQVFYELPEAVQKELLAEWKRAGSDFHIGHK

Molecular target: DNA polymerase iota (Homo sapiens) (UniProt Q9UNA4)
Test: qHTS for Inhibitors of Polymerase Iota
Details: Pol iota fluorescent replication assay, 10 min; series mostly up to 115 µM
How it was run: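 Pol iota at 10 nM preincubated 15 min with compounds at room temperature; reaction started with fluorescent substrate, 50 nM final. Fluorescence read kinetically at 0 and 10 min; buffer-only wells as negative control.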
Potency means the concentration at half of the fitted maximal effect.

Potency, active:
O=C1CCCC2=C1C(c1ccc(O)c(O)c1)Nc1ccc3ncccc3c12 (stereo not drawn) 12.6 µM, C=CC(=O)N1C/C(=C/c2ccc(F)cc2)C(=O)/C(=C\c2ccc(F)cc2)C1 11.2 µM, Cc1c(OCc2ccc(C(=O)O)o2)ccc2c3c(c(=O)oc12)CCC3 39.8 µM, O=C1NN(c2ccc(Cl)cc2)C(=O)/C1=C\c1ccc(-c2cccc(C(=O)O)c2)o1 8.91 µM

Potency, inactive:
CCc1ccc(NCc2cc3ccc(OC)cc3n(CC(=O)Nc3ccc(F)cc3F)c2=O)cc1, O=C1CCC(=O)N1c1ccc(-c2nc3sc4c(c3c(=O)o2)CCC4)cc1, CCOC(=O)c1cccc(NC(=O)NCc2cccn2Cc2ccccc2)c1, CC(C)(C)c1nnc(N/N=C/c2cc(Br)ccc2O)n(N)c1=O, COc1ccc(CN2CCN(C3CCC3)CC2CCO)c(F)c1 (stereo not drawn), C(=C1c2ccccc2Oc2ccccc21)c1ccccc1, CCCN(CC(=O)Nc1ccccc1C)C(=O)Cc1c[nH]c2ccccc12, CCOc1ccc(-n2c(/C=C/c3cccc(F)c3)nc3cc(OC)c(OC)cc3c2=O)cc1, Cc1c(C(=O)NCc2ccccc2Cl)sc2nc3n(c(=O)c12)CCCCC3, CSc1cccc(NC(=O)CC2Oc3ccccc3NC2=O)c1 (stereo not drawn), CCn1c(CC(=O)Nc2ccccc2F)nnc1SCC(=O)Nc1nncs1, COCCN(C(=O)c1cc2c(s1)CCCCC2)c1c(N)n(Cc2ccccc2)c(=O)[nH]c1=O, COc1ccc(C2C=C(c3ccccc3)Nc3nc(NC(=O)c4cccc([N+](=O)[O-])c4)nn32)cc1 (stereo not drawn)

Potency, inconclusive:
Cc1ccc(-n2nc(C)cc2N)c(C)c1 63.1 µM [inhibitor, partial curve, poor fit], CC(C)n1c(=S)[nH]c2cc(Cl)ccc21 31.6 µM [inhibitor, single point], COc1cc(C2Nc3cccc4cccc(c34)N2)ccc1OC(C)=O 11.2 µM [inhibitor, full curve, poor fit], COc1cc(NC(=O)COc2ccccc2[N+](=O)[O-])ccc1NC(=O)c1ccco1 56.2 µM [inhibitor, partial curve, poor fit], COc1ccc2nc3oc(C(=O)N4CCN(c5cc(C)ccc5C)CC4)cc3cc2c1 10 µM [inhibitor, partial curve, poor fit], Cc1cc(=O)c2ccccc2s1 89.1 µM [inhibitor, partial curve], CCC1CCCCN1C(=O)CCCOc1ccccc1 (stereo not drawn) 89.1 µM [inhibitor, single point], CCCCC(=O)Nc1nc(C)c(-c2csc(Nc3ccc(Cl)cc3)n2)s1 39.8 µM [inhibitor, single point], O=C(CN1C(=O)C(=O)N(Cc2ccco2)C1=O)c1c[nH]c2ccccc12 31.6 µM [inhibitor, full curve, poor fit], COC(=O)c1c(Cl)c2n3ccccc3c(C)c(-c3ccccc3)c-2c1C(=O)OC 35.5 µM [inhibitor, single point], COc1cc(/C=C/C(=O)OCC(=O)c2ccc[nH]2)cc(OC)c1OC 79.4 µM [inhibitor, partial curve], CCc1ccccc1NC(=O)CN(C)S(=O)(=O)c1ccc2c(c1)c(=O)n(C)c(=O)n2C 79.4 µM [inhibitor, single point], Cc1ccccc1NS(=O)(=O)c1ccc2[nH]cc(C(=O)N(C)Cc3ccco3)c(=O)c2c1 15.8 µM [inhibitor, full curve], CCOC(=O)c1cc(-c2nnc(-c3ccc(Cl)cc3)o2)c(C)nc1C 79.4 µM [inhibitor, single point], NC(=O)c1ccsc1NC(=O)COC(=O)CNC(=O)c1ccc(F)cc1 35.5 µM [inhibitor, partial curve], CN(C(=O)c1ccc(NC(=O)Cc2cccc(NC(=O)C3CCCN(C(=O)C4CCC4)C3)c2)cc1)C1CC1 (stereo not drawn) 0.631 µM [inhibitor, full curve, poor fit], COc1ccc(-c2cn[nH]c2-c2ccc(OCc3ccccc3)cc2O)cc1OC 17.8 µM [inhibitor, partial curve, poor fit], CCn1c(C)c(C(C)=O)c(N2CCN(C(=O)c3ccco3)CC2)nc1=S 79.4 µM [inhibitor, partial curve, poor fit], COc1ccc2c(c1OC)C(=O)OC2c1c(O)nc(SC)n(-c2ccccc2)c1=O (stereo not drawn) 5.62 µM [inhibitor, partial curve, poor fit], COC(=O)C(Cc1c[nH]c2ccccc12)NC(=O)c1cccc(S(=O)(=O)N2CCCCC2)c1 (stereo not drawn) 79.4 µM [inhibitor, single point], O=C(NCc1ccccc1)C1CCCN(S(=O)(=O)c2cccc3nsnc23)C1 (stereo not drawn) 44.7 µM [inhibitor, partial curve, poor fit], CC(C)(C)OC(=O)[C@H](CCCCN)NC(=O)c1nc[nH]c1C(=O)NCCCCCN 25.1 µM [inhibitor, partial curve, poor fit], Cc1ccc(C(C)(C)C)cc1S(=O)(=O)Nc1ncnc2sccc12 56.2 µM [inhibitor, partial curve, poor fit], COc1ccc(OC)c(-c2nnc3n2N=C(c2ccc(OC(F)F)c(OCC4CC4)c2)CS3)c1 17.8 µM [inhibitor, single point], COc1ccc2nc(Nc3nc(CSc4nc5ccccc5[nH]4)cc(=O)[nH]3)nc(C)c2c1 3.16 µM [inhibitor, full curve], COc1ccc(CCn2c3c(c(=O)[nH]c2=O)C(NC(=O)c2ccccc2F)(C(F)(F)F)C(=O)N3)cc1OC (stereo not drawn) 89.1 µM [inhibitor, single point], CSc1ccc(-c2sc(Nc3cccc4ccccc34)n[n+]2-c2ccccc2)cc1 31.6 µM [inhibitor, single point], CCOC(=O)c1ccccc1NC(=O)COc1coc(CN2CCc3ccccc32)cc1=O 39.8 µM [inhibitor, full curve], O=C1NC(=S)NC(=O)C1=Cc1ccccc1C(=O)O 20 µM [inhibitor, partial curve, poor fit], Cc1cccc(NC(=O)c2ccc(COc3ccc(Cl)cc3Cl)o2)n1 39.8 µM [inhibitor, single point], Cc1ccn2cc(CC(=O)O)nc2c1 14.1 µM [inhibitor, full curve, poor fit], c1ccc2c(c1)Cc1cc3ccccc3nc1-2 22.4 µM [inhibitor, single point], Cc1nn2c(=O)cc(COC(=O)c3cccc(NC(=O)CCc4ccccc4)c3)nc2s1 89.1 µM [inhibitor, single point], COc1cc(/C=C(/C#N)c2ccc(F)cc2)ccc1OCc1ccc(C(=O)O)o1 31.6 µM [inhibitor, partial curve, poor fit], COc1ccc(CCNC(=O)c2nnn(CC(=O)Nc3ccccc3)c2N)cc1OC 44.7 µM [inhibitor, single point], Cc1cc(/C=C(\C#N)c2nc3ccccc3[nH]2)c(C)n1C 56.2 µM [inhibitor, partial curve, poor fit], COC(=O)CN(Cc1ccco1)S(=O)(=O)c1ccccc1 44.7 µM [inhibitor, partial curve, poor fit], CCOC(=O)C1(N(CC)CC)Sc2cc(C)ccc2NC1=O (stereo not drawn) 100 µM [inhibitor, partial curve, poor fit], COc1ccc(C(=O)CSc2ncn[nH]2)cc1OC 39.8 µM [inhibitor, single point], COc1ccc(CNC(=O)C[C@H]2C[C@H](C(=O)N3CCCCC3)[C@@]3(CCc4ccccc4)c4[nH]c5cc(-c6ccco6)ccc5c4CCN3C2=O)cc1OC 35.5 µM [inhibitor, partial curve, poor fit], O=C1C=CC(=O)c2c(O)c(N3CCN(CCOCCO)CC3)c(Br)c(O)c21 6.31 µM [inhibitor, partial curve, poor fit], COCCNc1oc(/C=C/c2ccccc2OC)nc1S(=O)(=O)c1ccccc1 56.2 µM [inhibitor, partial curve, poor fit], Cc1ccc(-c2ccc(=O)n(CC(=O)Nc3ccc(C)cc3Cl)n2)cc1 89.1 µM [inhibitor, single point], CC(=O)c1cccc(NC(=S)NC(=O)c2cncc(Br)c2)c1 39.8 µM [inhibitor, partial curve, poor fit], COc1ccc(/C=C(/NC(=O)c2cccs2)C(=O)Nc2ccc(C)cc2)cc1OC 56.2 µM [inhibitor, full curve], O=C(O)c1ccc(N/N=C/c2cc3cc4c(cc3nc2Cl)OCCO4)cc1 17.8 µM [inhibitor, full curve, poor fit]
